From publication PMC6347614
No constants are given. Whether binding was seen depends on the method and setting. Binding seen in cells or lysates may run through a third protein. Some results given as binding are weak or reduced against the parent protein; the word gives no strength.

Protein sequences, listed by entry. Tags and fused reporters are not part of them.
UniProt Q9H0J4: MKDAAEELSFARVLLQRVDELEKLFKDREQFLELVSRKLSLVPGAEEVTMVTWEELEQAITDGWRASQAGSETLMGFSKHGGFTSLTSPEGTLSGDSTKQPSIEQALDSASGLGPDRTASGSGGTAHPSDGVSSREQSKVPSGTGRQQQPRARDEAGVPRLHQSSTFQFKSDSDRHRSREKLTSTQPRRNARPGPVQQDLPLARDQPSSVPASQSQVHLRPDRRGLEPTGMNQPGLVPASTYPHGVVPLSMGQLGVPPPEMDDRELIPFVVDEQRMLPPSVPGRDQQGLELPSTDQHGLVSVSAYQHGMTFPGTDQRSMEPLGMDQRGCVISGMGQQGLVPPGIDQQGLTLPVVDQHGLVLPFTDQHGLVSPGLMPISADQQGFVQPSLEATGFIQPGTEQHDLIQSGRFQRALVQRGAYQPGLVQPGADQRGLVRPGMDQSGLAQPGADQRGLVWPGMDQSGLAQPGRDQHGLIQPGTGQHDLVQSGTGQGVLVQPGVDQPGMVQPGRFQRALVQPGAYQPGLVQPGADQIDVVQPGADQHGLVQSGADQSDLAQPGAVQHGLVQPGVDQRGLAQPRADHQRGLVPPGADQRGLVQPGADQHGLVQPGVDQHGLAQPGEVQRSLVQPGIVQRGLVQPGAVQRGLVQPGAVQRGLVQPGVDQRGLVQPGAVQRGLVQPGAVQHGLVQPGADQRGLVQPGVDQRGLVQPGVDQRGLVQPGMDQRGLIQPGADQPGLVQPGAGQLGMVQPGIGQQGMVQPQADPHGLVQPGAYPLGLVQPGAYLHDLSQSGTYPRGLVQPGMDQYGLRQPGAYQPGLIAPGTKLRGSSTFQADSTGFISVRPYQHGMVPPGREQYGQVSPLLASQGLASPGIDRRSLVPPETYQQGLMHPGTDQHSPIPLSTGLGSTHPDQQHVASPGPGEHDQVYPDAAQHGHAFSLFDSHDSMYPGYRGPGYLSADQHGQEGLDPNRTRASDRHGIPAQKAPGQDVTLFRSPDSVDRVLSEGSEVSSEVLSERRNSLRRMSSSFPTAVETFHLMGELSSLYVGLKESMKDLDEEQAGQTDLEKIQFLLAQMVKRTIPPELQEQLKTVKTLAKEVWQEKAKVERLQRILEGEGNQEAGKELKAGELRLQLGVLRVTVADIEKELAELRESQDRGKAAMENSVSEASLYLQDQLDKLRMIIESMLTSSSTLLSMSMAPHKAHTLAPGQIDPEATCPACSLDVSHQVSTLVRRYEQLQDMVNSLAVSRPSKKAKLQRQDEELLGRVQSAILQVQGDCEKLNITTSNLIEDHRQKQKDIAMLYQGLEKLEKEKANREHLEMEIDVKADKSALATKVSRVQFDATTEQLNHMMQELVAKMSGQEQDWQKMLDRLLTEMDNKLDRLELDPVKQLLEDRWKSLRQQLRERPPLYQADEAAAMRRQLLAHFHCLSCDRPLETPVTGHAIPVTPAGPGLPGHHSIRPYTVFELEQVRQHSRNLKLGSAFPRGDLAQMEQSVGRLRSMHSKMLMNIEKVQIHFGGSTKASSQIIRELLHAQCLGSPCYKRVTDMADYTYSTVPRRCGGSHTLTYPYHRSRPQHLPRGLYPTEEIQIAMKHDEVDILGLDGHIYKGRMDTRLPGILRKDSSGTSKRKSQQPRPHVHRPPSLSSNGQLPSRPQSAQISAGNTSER
UniProt O75969: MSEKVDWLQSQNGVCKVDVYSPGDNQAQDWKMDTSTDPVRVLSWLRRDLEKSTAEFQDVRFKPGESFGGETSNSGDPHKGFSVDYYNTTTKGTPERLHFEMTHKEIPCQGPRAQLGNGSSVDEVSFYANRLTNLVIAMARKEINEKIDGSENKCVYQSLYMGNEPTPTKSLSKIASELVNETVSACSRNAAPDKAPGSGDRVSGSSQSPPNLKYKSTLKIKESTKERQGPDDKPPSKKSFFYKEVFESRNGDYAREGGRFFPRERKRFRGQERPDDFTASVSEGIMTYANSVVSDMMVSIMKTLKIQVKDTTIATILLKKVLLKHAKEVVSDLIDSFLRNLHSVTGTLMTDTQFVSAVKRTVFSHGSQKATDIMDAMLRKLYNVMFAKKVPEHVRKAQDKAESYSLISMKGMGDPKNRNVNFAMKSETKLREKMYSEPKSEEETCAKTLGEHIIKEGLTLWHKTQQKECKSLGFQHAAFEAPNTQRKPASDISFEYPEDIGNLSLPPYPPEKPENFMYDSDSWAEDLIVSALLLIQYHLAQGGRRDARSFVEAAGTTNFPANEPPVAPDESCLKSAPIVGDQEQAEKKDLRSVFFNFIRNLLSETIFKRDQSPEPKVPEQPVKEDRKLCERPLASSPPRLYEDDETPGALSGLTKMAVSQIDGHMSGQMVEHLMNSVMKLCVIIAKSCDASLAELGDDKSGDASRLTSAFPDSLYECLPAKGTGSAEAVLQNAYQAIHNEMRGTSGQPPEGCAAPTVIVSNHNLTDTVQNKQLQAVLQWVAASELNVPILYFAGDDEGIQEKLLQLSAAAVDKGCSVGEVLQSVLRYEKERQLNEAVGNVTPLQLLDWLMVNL
UniProt Q9ESG2: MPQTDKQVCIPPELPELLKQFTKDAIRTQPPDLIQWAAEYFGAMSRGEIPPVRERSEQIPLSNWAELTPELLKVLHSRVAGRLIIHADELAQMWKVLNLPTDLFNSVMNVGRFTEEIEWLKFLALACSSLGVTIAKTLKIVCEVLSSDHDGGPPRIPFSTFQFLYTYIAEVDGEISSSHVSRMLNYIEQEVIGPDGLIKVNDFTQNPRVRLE

T1: Akap3 (mouse (endogenous in testes)) (UniProt O88987)
T1 sequence: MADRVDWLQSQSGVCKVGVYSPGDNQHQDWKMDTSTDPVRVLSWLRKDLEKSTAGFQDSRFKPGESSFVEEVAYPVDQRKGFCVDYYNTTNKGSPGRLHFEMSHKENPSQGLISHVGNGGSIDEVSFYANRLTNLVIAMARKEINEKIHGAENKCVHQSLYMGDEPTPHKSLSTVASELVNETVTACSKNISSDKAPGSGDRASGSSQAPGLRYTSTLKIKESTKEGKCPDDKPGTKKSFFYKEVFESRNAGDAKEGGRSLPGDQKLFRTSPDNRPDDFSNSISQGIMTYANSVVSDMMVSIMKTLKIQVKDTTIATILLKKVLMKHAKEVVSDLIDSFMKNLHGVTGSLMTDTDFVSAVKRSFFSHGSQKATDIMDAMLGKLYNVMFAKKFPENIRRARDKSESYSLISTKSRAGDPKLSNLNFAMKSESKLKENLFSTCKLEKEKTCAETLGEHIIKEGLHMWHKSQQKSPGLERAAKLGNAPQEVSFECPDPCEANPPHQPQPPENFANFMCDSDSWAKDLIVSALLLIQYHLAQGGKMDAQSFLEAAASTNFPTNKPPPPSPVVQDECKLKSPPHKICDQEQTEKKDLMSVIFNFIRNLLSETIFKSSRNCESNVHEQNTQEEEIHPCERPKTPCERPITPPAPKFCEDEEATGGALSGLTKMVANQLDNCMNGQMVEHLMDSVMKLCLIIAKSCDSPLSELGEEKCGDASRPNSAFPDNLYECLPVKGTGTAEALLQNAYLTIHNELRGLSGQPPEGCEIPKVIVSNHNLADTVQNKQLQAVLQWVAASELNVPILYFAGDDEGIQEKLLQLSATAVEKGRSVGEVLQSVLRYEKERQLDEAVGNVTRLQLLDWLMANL

B1: outer dense fiber of sperm tails 2 (ODF2) (protein, UniProt Q5BJF6 1-829)
chain: MSASSSGGSPRFPSCGKNGVTSLTQKKVLRAPCGAPSVTVTKSHKRGMKGDTVNVRRSVRVKTKVPWMPPGKSSARPVGCKWENPPHCLEITPPSSEKLVSVMRLSDLSTEDDDSGHCKMNRYDKKIDSLMNAVGCLKSEVKMQKGERQMAKRFLEERKEELEEVAHELAETEHENTVLRHNIERMKEEKDFTILQKKHLQQEKECLMSKLVEAEMDGAAAAKQVMALKDTIGKLKTEKQMTCTDINTLTRQKELLLQKLSTFEETNRTLRDLLREQHCKEDSERLMEQQGALLKRLAEADSEKARLLLLLQDKDKEVEELLQEIQCEKAQAKTASELSKSMESMRGHLQAQLRSKEAENSRLCMQIKNLERSGNQHKAEVEAIMEQLKELKQKGDRDKESLKKAIRAQKERAEKSEEYAEQLHVQLADKDLYVAEALSTLESWRSRYNQVVKEKGDLELEIIVLNDRVTDLVNQQQTLEEKMREDRDSLVERLHRQTAEYSAFKLENERLKASFAPMEDKLNQAHLEVQQLKASVKNYEGMIDNYKSQVMKTRLEADEVAAQLERCDKENKILKDEMNKEIEAARRQFQSQLADLQQLPDILKITEAKLAECQDQLQGYERKNIDLTAIISDLRSRIEHQGDKLEMAREKHQASQKENKQLSLKVDELERKLEATSAQNIEFLQVIAKREEAIHQSQLRLEEKTRECGTLARQLESAIEDARRQVEQTKEHALSKERAAQNKILDLETQLSRTKTELSQLRRSRDDADRRYQSRLQDLKDRLEQSESTNRSMQNYVQFLKSSYANVFGDGPYSTFLTSSPIRSRSPPA
B2: testis specific serine kinase 4 (TSSK4) (protein, UniProt Q6SA08 1-328)
chain: MGKGDVLEAAPTTTAYHSLMDEYGYEVGKAIGHGSYGSVYEAFYTKQKVMVAVKIISKKKASDDYLNKFLPREIQVMKVLRHKYLINFYRAIESTSRVYIILELAQGGDVLEWIQRYGACSEPLAGKWFSQLTLGIAYLHSKSIVHRDLKLENLLLDKWENVKISDFGFAKMVPSNQPVGCSPSYRQVNCFSHLSQTYCGSFAYACPEILRGLPYNPFLSDTWSMGVILYTLVVAHLPFDDTNLKKLLRETQKEVTFPANHTISQECKNLILQMLRQATKRATILDIIKDSWVLKFQPEQPTHEIRLLEAMCQLHNTTKQHQSLQITT
B3: Cabyr (protein, UniProt Q9D424 1-453)
chain: MISSKPRLVVPYGLKTLLEGVSRAILKTNPTNITQFAAVYFKELIVFREGNSSLDIKDLIKQFHQMKVEKWAEGVTVEKKECIKEPIKPPPVPCKPTHMEKSTDTEEDNVAGPLFSNKTTQFPSVHAEVQSEETSEGARGPSDKPTTPKTDYTPPSSPPPAPVSAEYAYVPADPAQFAAQMLGNVPSTYSEVLMVDVATSTPAVPQDVLSAEFAEEVVLSAPLVCSGETVEVQVVSKTSAQVVVGPVSEAEPPKASSAPLQGEQEPPAHEAPDTQVTSASRISSIYNDVPVNEGVVYVEEIPGYIVIPFTDHDQVACVKEIEQSPPGSPKAVEPKTKISIESLKTVQVEENSQHKSSVHVEAEATVLLSNTALDGQPEVPAEPLDAEGFFKVASENSLHLETEIVIINPDDPGQEESGGNAAPHSSGDPFPPAPGGLTEPEMQPDGEAAPEQV

Tests used:
[1] = target: glutamine rich 2 (QRICH2) (human) (UniProt Q9H0J4); experiment: co-IP; exogenous Co-IP in HEK 293 cells; extracts incubated with 3 µg of antibody overnight at 4 °C, Protein A/G magnetic beads, washed three times with 1× PBS, immunoblot; the precipitated partner is not stated
[2] = target: T1, Akap3 (mouse (endogenous in testes)); experiment: co-IP; endogenous proteins in testes of WT and Qrich2-KO mice; extracts incubated with 3 µg of antibody overnight at 4 °C, Protein A/G magnetic beads, washed three times with 1× PBS, immunoblot

Molecule	binding [1]	binding [2]
A-kinase anchoring protein (AKAP3) (from UniProt O75969 1-853)	binds	–
Ropn1 (from UniProt Q9ESG2 1-212)	–	binds
B1	binds	–
B2	binds	–
B3	–	binds
